Experimental findings from paper PMC6208484 are described below.

These are yes or no findings as the source states them, for the method shown. Binding seen in cells or lysates may run through a third protein. For some assays here: A result given as binding can be weak or reduced; the word gives no strength. Sequences can lack the tags named with a protein.

The target of assay [1] is HA-Core (HCV Core protein) (hepatitis C virus). Briefly: co-IP; 293T cells co-transfected with Flag-RBM24 and HA-Core or HA-NS3/4A; lysates precipitated with anti-HA mouse monoclonal antibody or control IgG in the presence of RNase A (20 ug/mL, overnight, 4 C); blots with anti-HA and anti-[…].
Assay [2] addresses HA-NS5B (HCV NS5B) (hepatitis C virus). In words: co-IP; lysate of 293T cells transfected with pFlag-RBM24 and pHA-NS5A, or pFlag-RBM24 and pHA-NS5B.

B1: Flag-RBM24 (RNA binding motif protein 24) (protein, UniProt Q9BX46-1 1-236)
chain: MHTTQKDTTYTKIFVGGLPYHTTDASLRKYFEVFGEIEEAVVITDRQTGKSRGYGFVTMADRAAAERACKDPNPIIDGRKANVNLAYLGAKPRIMQPGFAFGVQQLHPALIQRPFGIPAHYVYPQAFVQPGVVIPHVQPTAAAASTTPYIDYTGAAYAQYSAAAAAAAAAAAYDQYPYAASPAAAGYVTAGGYGYAVQQPITAAAPGTAAAAAAAAAAAAAFGQYQPQQLQTDRMQ
Consider B1, for which the results for the binding result in assay [1] and in assay [2] were “binds” and “no binding”, respectively.
